{
  "source": "the supplement of paper PMC12889115",
  "test_system": "Salmonella enterica serovar Typhimurium SL1344",
  "assay": "bacterial growth OD600 after 18 h with compound and polymyxin B; higher = more bacterial growth (less inhibition)",
  "conditions": "50 µM, Mueller-Hinton broth",
  "note": "The list shows a part of the results. Values are raw readings; no control value is given beside them.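 First-pass screen: polymyxin B was added at a level that permeabilizes the Salmonella outer membrane while sparing the inner membrane. DMSO wells, with and without polymyxin B, defined maximum growth. Because plates differed from one another, each plate's data were ranked separately and the compounds with the lowest OD600 were carried forward as hits.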",
  "data": [
    {"smiles": "Cc1c[nH]c(CNC(=O)C2CCCN(c3nc(-c4ccccc4)nc4c3CCC4)C2)n1", "note": "(stereo not given)", "values": [
      {"measurement": "bacterial growth OD600", "setting": "polymyxin B 1 µg/mL", "result": 0.004}
    ]},
    {"smiles": "O=C(NCc1cccc(F)c1)c1ccc(OC2CCN(C(=O)C3CC3)CC2)cc1", "values": [
      {"measurement": "bacterial growth OD600", "setting": "polymyxin B 1 µg/mL", "result": 1.17}
    ]},
    {"smiles": "COCc1ccc(C(=O)Nc2ccc(-c3nc(CNC(=O)c4csc(SC)n4)c(C)o3)cc2)o1", "values": [
      {"measurement": "bacterial growth OD600", "setting": "polymyxin B 0.75 µg/mL", "result": 0.872}
    ]},
    {"smiles": "Cc1nonc1CC(=O)N1CCCC(CNC(=O)C2(c3ccc(Cl)cc3)CC2)C1", "note": "(stereo not given)", "values": [
      {"measurement": "bacterial growth OD600", "setting": "polymyxin B 0.75 µg/mL", "result": 0.724}
    ]},
    {"smiles": "COc1ccc(CCc2nnc(CCC(=O)NC3CCCCCCC3)o2)cc1", "values": [
      {"measurement": "bacterial growth OD600", "setting": "polymyxin B 1 µg/mL", "result": 0.948}
    ]},
    {"smiles": "CCOC(=O)C1(CCCc2ccccc2)CCN(Cc2ccc(CO)o2)CC1", "values": [
      {"measurement": "bacterial growth OD600", "setting": "polymyxin B 1 µg/mL", "result": 0.786}
    ]},
    {"smiles": "CC(C)CN1CCC(CN(C)C(=O)c2cc(COc3c(F)cccc3F)on2)CC1", "values": [
      {"measurement": "bacterial growth OD600", "setting": "polymyxin B 0.75 µg/mL", "result": 0.924}
    ]},
    {"smiles": "CCn1cc(C(=O)N2CCc3[nH]nc(-c4ccc5c(c4)OCO5)c3C2)cn1", "values": [
      {"measurement": "bacterial growth OD600", "setting": "polymyxin B 0.75 µg/mL", "result": 0.736}
    ]},
    {"smiles": "COc1cccc(CC2(CO)CCN(CC3=CC[C@H]4C[C@@H]3C4(C)C)CC2)c1", "values": [
      {"measurement": "bacterial growth OD600", "setting": "polymyxin B 0.75 µg/mL", "result": 0.753}
    ]},
    {"smiles": "CC(=O)NCCC1CCN(c2nc3nonc3nc2N(C)Cc2ccccc2)CC1", "values": [
      {"measurement": "bacterial growth OD600", "setting": "polymyxin B 1 µg/mL", "result": 0.926}
    ]},
    {"smiles": "CC(c1ccccc1)c1cc(C(=O)NCCc2cccs2)on1", "note": "(stereo not given)", "values": [
      {"measurement": "bacterial growth OD600", "setting": "polymyxin B 0.75 µg/mL", "result": 0.622}
    ]},
    {"smiles": "CCS(=O)(=O)c1ncc(CN2CCC(OC)CC2)n1CCCc1ccccc1", "values": [
      {"measurement": "bacterial growth OD600", "setting": "polymyxin B 1 µg/mL", "result": 0.543}
    ]},
    {"smiles": "COCCN1C(=O)CC(CC(=O)N2CCCC(C(=O)c3nccn3C)C2)(c2ccccc2F)C1=O", "note": "(stereo not given)", "values": [
      {"measurement": "bacterial growth OD600", "setting": "polymyxin B 0.75 µg/mL", "result": 0.916}
    ]},
    {"smiles": "COc1ccccc1CC(=O)N1CCC(C(Cc2ccccc2)N(C)C(=O)Cn2cccn2)CC1", "note": "(stereo not given)", "values": [
      {"measurement": "bacterial growth OD600", "setting": "polymyxin B 0.75 µg/mL", "result": 0.991}
    ]},
    {"smiles": "CC(C)CCC(=O)NCC1Cc2cccc(-c3cncnc3)c2O1", "note": "(stereo not given)", "values": [
      {"measurement": "bacterial growth OD600", "setting": "polymyxin B 0.75 µg/mL", "result": 0.897}
    ]},
    {"smiles": "Cc1oc(-c2ccc(NC(=O)Cc3ccccc3)cc2)nc1CNC(=O)c1ccc2c(c1)OCO2", "values": [
      {"measurement": "bacterial growth OD600", "setting": "polymyxin B 0.75 µg/mL", "result": 0.879}
    ]},
    {"smiles": "CC(=O)N1CCC(NC2CC(C)(C)Cc3c2cnn3-c2ccc(F)cc2)CC1", "note": "(stereo not given)", "values": [
      {"measurement": "bacterial growth OD600", "setting": "polymyxin B 1 µg/mL", "result": 0.927}
    ]},
    {"smiles": "CCNc1ccc(C(=O)N2CCC(Oc3cccnc3)CC2)cn1", "values": [
      {"measurement": "bacterial growth OD600", "setting": "polymyxin B 1 µg/mL", "result": 0.899}
    ]},
    {"smiles": "CCCN(CC1CC1)C(=O)c1cc(NC(=O)COC)c2c(c1)ncn2CCc1ccccc1", "values": [
      {"measurement": "bacterial growth OD600", "setting": "polymyxin B 0.75 µg/mL", "result": 0.798}
    ]},
    {"smiles": "CCc1ccc(CN2CCCC(CNC(=O)c3cccc(OC)c3OC)C2)cc1", "note": "(stereo not given)", "values": [
      {"measurement": "bacterial growth OD600", "setting": "polymyxin B 1 µg/mL", "result": 0.834}
    ]}
  ]
}
